Some results were stated once for a whole list of compounds, not compound by compound.
Assays:
histamine H3 receptor [1] = molecular target: T1, histamine H3 receptor (Rattus norvegicus, UniProt Q9QYN8); experiment: Histamine H3 receptor binding assay ([3H]-Nα-methylhistamine binding to rat striatum homogenate); conditions: 1 μmol/L test compound; [3H]-Nα-methylhistamine 1 nmol/L; striata of Sprague-Dawley male rats, 25° C., 1 hour
T1 construct: from tissue; host or cells: rat striatum (Sprague-Dawley, male, 6 weeks), membrane homogenate
Experimental: To the striata of Sprague-Dawley male rats (6 weeks of age), a 10-fold volume of lysis buffer {50 mmol/L [[…] (Tris)]/HCl (pH 7.4), 5 mmol/L ethylenediaminetetraacetic acid (EDTA), a protease inhibitor mixture [1 mg/mL phenylmethylsulfonyl fluoride (PMSF), 1 μg/mL pepstatin A, 1 μg/mL leupeptin, 1 μg/mL chymostatin]} was added and the striata were homogenized. The resulting homogenate was centrifuged (30,000×g, 4° C., 30 min), and the obtained precipitate was resuspended in a 10-fold volume of lysis buffer, followed by centrifugation under the same condition. To the obtained precipitate, a 3-fold volume of lysis buffer was added to suspend the precipitate, and the resulting tissue homogenate was used for a test.
A test compound was dissolved in an assay buffer [50 mmol/L Tris/HCl (pH 7.4), 5 mmol/L EDTA], and [^3H]-N^α-methylhistamine (1 nmol/L) and the tissue homogenate (20 μg, in terms of protein amount) were added thereto, and then, the mixture was incubated at 25° C. for 1 hour. Then, the reaction was terminated by rapid suction filtration on a glass filter [GF/B: Whatman, previously soaked in 0.3 w/v % polyethylenimine for about 30 min]. Then, the glass filter was washed three times with 3 mL of assay buffer. This glass filter was transferred into a scintillation vial and dried at 60° C. for 30 minutes. Then, 0.5 mL of Ultimagold (Perkin Elmer) was added thereto, and the radioactivity (binding amount of [^3H]-N^α-methylhistamine) was measured using a liquid scintillation counter. The obtained value was used as a binding amount in the presence of the test compound. The same procedure as described above was carried out in the absence of the test compound, and the binding amount of [^3H]-N^α-methylhistamine obtained at this time was used as a binding amount in the absence of the test compound. Further, the binding amount of [^3H]-N^α-methylhistamine obtained in the presence of 10 μmol/L thioperamide was used as a non-specific binding amount. An inhibitory action of [^3H]-N^α-methylhistamine binding was represented by an inhibition ratio in terms of 1 μmol/L of the test compound calculated by the following Equation (1).
Inhibition ratio(%)={1−[(Binding amount in the presence of test compound)−(Non-specific binding amount)]/[(Binding amount in the absence of test compound)−(Non-specific binding amount)]}×100 (1)

The chains behind the UniProt entries cited, without tags or fusion partners. Where a name states a change or a piece, a line headed by the entry shows the natural chain unless it says otherwise.
UniProt Q9QYN8: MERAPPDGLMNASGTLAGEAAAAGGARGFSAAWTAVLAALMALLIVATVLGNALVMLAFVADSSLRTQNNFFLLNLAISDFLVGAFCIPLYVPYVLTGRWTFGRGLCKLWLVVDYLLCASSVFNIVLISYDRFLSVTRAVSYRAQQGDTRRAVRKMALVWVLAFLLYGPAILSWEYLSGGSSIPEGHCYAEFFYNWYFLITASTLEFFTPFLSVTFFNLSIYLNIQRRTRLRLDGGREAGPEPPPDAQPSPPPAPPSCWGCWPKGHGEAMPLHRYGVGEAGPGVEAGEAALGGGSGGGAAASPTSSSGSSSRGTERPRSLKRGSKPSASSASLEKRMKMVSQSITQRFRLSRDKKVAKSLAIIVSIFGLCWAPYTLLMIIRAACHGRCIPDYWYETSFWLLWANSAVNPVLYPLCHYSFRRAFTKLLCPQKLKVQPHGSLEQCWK

histamine H3 receptor [2] = molecular target: T1, histamine H3 receptor; experiment: Inhibitory effect on histamine release suppressive action of histamine H3 receptor agonist (Nα-methylhistamine) in rat forebrain synaptosomes; format: biochemical; conditions: 1 μmol/L test compound and 1 μmol/L Nα-methylhistamine, potassium 30 mmol/L stimulation
Experimental: To the forebrains of Sprague-Dawley male rats (6 to 8 weeks of age), a 30-fold volume of a 0.32 mol/L aqueous sucrose solution was added and the forebrains were homogenized. The resulting homogenate was centrifuged (1,000×g, 4° C., 10 min), and to the obtained supernatant, an equivalent volume of Krebs-Ringer solution [120 mmol/L sodium chloride, 0.8 mmol/L potassium chloride, 2.6 mmol/L calcium chloride, 0.67 mmol/L magnesium sulfate, 1.2 mmol/L potassium dihydrogen phosphate, 27.5 mmol/L sodium bicarbonate, 10 mmol/L glucose (pH 7.3)] was added, and the resulting mixture was centrifuged (10,000×g, 4° C., 15 min). To the obtained precipitate, a 15-fold volume of Krebs-Ringer solution was added to suspend the precipitate. Then, the concentration of protein in the resulting tissue homogenate (synaptosomes) was measured and used for a test. […]
A test compound and N^α-methylhistamine were separately dissolved in Krebs-Ringer solution to give a concentration of 20 μmol/L (the resulting mixtures were referred to as a test compound solution and a N^α-methylhistamine solution, respectively). […] Then, 8 mL of Ultimagold (Perkin Elmer) was added to the recovered eluted solution, and the radioactivity ([^3H]-histamine) was measured using a liquid scintillation counter. […] The inhibition ratio of the [^3H]-histamine release suppressive action was calculated using the following Equation (2). […]

Row | Compound | Inhibition ratio of [3H]-Nα-methylhistamine binding (histamine H3 receptor [1]) | Inhibition ratio of the [3H]-histamine release suppressive action of Nα-methylhistamine (histamine H3 receptor [2])
1 | CC(C)N1CCC(NC(=C(C#N)C#N)N2CCC(CN3CCCC3C)CC2)CC1 (centres unmarked) [Compound 180] | ≥ 80% | 
2 | CC(C)N1CCC(N2CCN(CCCN3CCC(F)(F)CC3)C2=C(C#N)C#N)CC1 [Compound 232, [3-(3-(4,4-Difluoropiperidine)-1-ylpropyl)-1-(1-isopropylpiperidin-4-yl)imidazolidin-2-ylidene]malononitrile] | ≥ 80% | 
3 | CC1CCN(CCCN2CCN(CCCN3CCCC3C)C2=C(C#N)C#N)CC1 (centres unmarked) [Compound 113] | ≥ 80% | ≥ 70%
4 | CC(C)N1CCC(N2CCN(CCCN3CCC(F)(F)C3)C2=C(C#N)C#N)CC1 [Compound 230, {3-[3-(3,3-Difluoropyrrolidin)-1-ylpropyl]-1-(1-isopropylpiperidin-4-yl)imidazolidin-2-ylidene}malononitrile] | ≥ 80% | 

— US20090181948A1, “DIAMINE DERIVATIVE” (KYOWA HAKKO KOGYO CO., LTD., priority 2005, published 2009)
